According to the supplement of paper PMC4807443:
Structures can show the parent of a compound that is named as a salt. The list shows a part of the results. The numbers are fractions of the control, whatever unit the source prints. Most values lie at the level of the controls, where differences are scatter.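 A lentiviral reporter stably expressed in MIN6 mouse insulinoma beta cells uses Pdx1 and Ins1 promoters to drive separate nucleus-targeted fluorescent proteins; automated imaging with Hoechst nuclear stain counted cells. Possible hits were drugs shifting Ins1 promoter signal more than two median absolute deviations from DMSO controls, with Pdx1 activity roughly normal.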

tested on: MIN6; test: % Pdx1+ Ins1+ (double-positive, mature) cells relative to DMSO control (fold of DMSO control); higher = more mature Ins1 promoter-active cells; conditions: 8.5 µM; 48 h; glucose 5 mM

Row | Structure (SMILES) | % Pdx1+ Ins1+
1 | CC(=O)OCC(=O)[C@@]12OC(C)(C)O[C@@H]1C[C@H]1[C@@H]3C[C@H](F)C4=CC(=O)C=C[C@]4(C)[C@@]3(F)[C@@H](O)C[C@@]12C [Fluocinonide] | 0.819
2 | c1ccc2c(CC3=NCCN3)cccc2c1 [Naphazoline hydrochloride] | 0.899
3 | COC(=O)C1=CO[C@@H](C)[C@H]2CN3CCc4c([nH]c5ccccc45)[C@@H]3C[C@H]12 [Ajmalicine hydrochloride] | 0.946
4 | CCC(=O)O[C@@H]1CC(=O)O[C@H](C)C/C=C/C=C/[C@H](O)[C@H](C)C[C@H](CC=O)[C@H](O[C@@H]2O[C@H](C)[C@@H](O[C@H]3C[C@@](C)(O)[C@@H](OC(=O)CC)[C@H](C)O3)[C@H](N(C)C)[C@H]2O)[C@H]1OC [Midecamycin] | 1.07
5 | CCN(CC)CC(=O)Nc1c(C)cccc1C [Lidocaïne hydrochloride] | 0.994
6 | CC(=O)NS(=O)(=O)c1ccc(N)cc1 [Sulfacetamide sodic hydrate] | 1.11
7 | COc1cccc2c1C(=O)c1c(O)c3c(c(O)c1C2=O)C[C@@](O)(C(C)=O)C[C@@H]3O[C@H]1C[C@H](N)[C@H](O)[C@H](C)O1 [Daunorubicin hydrochloride] | 0.342
8 | CN1CCN(C(c2ccccc2)c2ccccc2)CC1 [Cyclizine hydrochloride] | 0.881
9 | O=C(O)c1ccccc1C(=O)Nc1ccc(S(=O)(=O)Nc2nccs2)cc1 [Phthalylsulfathiazole] | 0.983
10 | OCCN(CCO)c1nc(N2CCCCC2)c2nc(N(CCO)CCO)nc(N3CCCCC3)c2n1 [Dipyridamole] | 1.12
11 | CC1CC(OC(=O)c2ccccc2O)CC(C)(C)C1 (configuration not stated) [Homosalate] | 0.903
12 | NC[C@@H]1O[C@@H](O[C@H]2[C@H](O)[C@@H](O[C@H]3O[C@H](CO)[C@@H](O)[C@H](N)[C@H]3O)[C@H](N)C[C@@H]2N)[C@@H](O)[C@H](O)[C@H]1O [Kanamycin A sulfate] | 0.974
13 | O=C(CCCN1CCN(c2ccccn2)CC1)c1ccc(F)cc1 [Azaperone] | 1.04
14 | C[C@H](CCC(=O)O)[C@H]1CC[C@H]2[C@@H]3[C@@H](O)C[C@@H]4C[C@H](O)CC[C@]4(C)[C@H]3CC[C@]12C [Urosiol] | 0.954
15 | C#C[C@]1(O)CC[C@H]2[C@@H]3CCC4=CCCC[C@@H]4[C@H]3CC[C@@]21C [Lynestrenol] | 1.03
16 | CN1CCC(=C2c3ccccc3Sc3ccccc32)CC1 [Pimethixene maleate] | 1.01
17 | N[C@@H](Cc1cc(I)c(Oc2ccc(O)c(I)c2)c(I)c1)C(=O)O [Liothyronine] | 1.01

Rewritten comma-delimited: entries from further up
Row,Structure (SMILES),% Pdx1+ Ins1+
13,O=C(CCCN1CCN(c2ccccn2)CC1)c1ccc(F)cc1 [Azaperone],1.04
17,N[C@@H](Cc1cc(I)c(Oc2ccc(O)c(I)c2)c(I)c1)C(=O)O [Liothyronine],1.01
